US12703693B2, “Crystalline forms of N-{3-[(1S)-1-{[6-(3,4-dimethoxyphenyl)pyrazin-2-yl]amino}ethyl]phenyl}-5-methylpyridine-3-carboxamide and related products and methods” (GB002, INC., priority 2021, dated 2026)

Test: Product characterization of micronized / spray dried powder (XRPD, amorphous content, water content by KF, assay and related substances, SSA)
Assay type: physicochemical
Conditions: final product, Compound 1 alone, wet polished and spray dried
From the text: The final spray dried product was characterized for assay and related substances, PSD, water content by KF and XRPD and the results shown in Table 43. The two sub-batches were blended to obtain the final product, with a total final yield was 137 g (68%), see Table 44.

COc1ccc(-c2cncc(N[C@@H](C)c3cccc(NC(=O)c4cncc(C)c4)c3)n2)cc1OC [Compound 1, N-{3-[(1S)-1-{[6-(3,4-dimethoxyphenyl)pyrazin-2-yl]amino}ethyl]phenyl}-5-methylpyridine-3-carboxamide]
Assay: 101.1 % LC
Impurities: 1.2 % area
